# PubChem BioAssay AID1259425 – University of Nebraska Medical Center, 2018
# Purpose: 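Find knockdowns that reproduce the gene expression pattern seen when KSR1 is lost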 (primary screen)
# Cells: HCT116 human colon cancer cells
# Reagent: siRNA pool against human genes, 50 nM siRNA
# Measurement: 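mRNA of six signature genes measured together by branched-DNA assay after 50 nM siRNA pool, blank removed, divided by geometric mean of two housekeeping genes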
# Reading the numbers: BNIP3L mRNA: higher = more BNIP3L transcript after knockdown; NDRG1 mRNA: higher = more NDRG1 transcript after knockdown; BNIP3 mRNA: higher = more BNIP3 transcript after knockdown
# This is one part, drawn at random, of about 14,000 reagents. The numbers tell different reagents against one gene apart. Further read-outs or replicates are left out here. The record does not give: the time to read-out.
gene symbol,pool no.,"BNIP3L mRNA, set 1","NDRG1 mRNA, set 1","BNIP3 mRNA, set 1"
CD86,1,0.0516,0.198,0.228
ACO2,1,0.119,0.815,0.32
FCF1,1,0.175,0.194,0.293
SLC38A4,1,0.0904,0.255,0.289
DCPS,1,0.0796,0.0901,0.191
SH3BP1,1,0.0947,0.619,0.447
SLC52A1,1,0.196,0.337,0.337
ABCA13,1,0.172,0.244,0.251
C1R,1,0.131,0.194,0.309
NMUR2,1,0.197,0.204,0.293
PECAM1,1,0.0667,0.103,0.277
ENSA,1,0.102,0.127,0.295
MOSPD1,1,0.106,0.469,0.274
GUSBP14,1,0.348,1.05,0.515
GUSBP14,2,0.188,0.59,0.382
INF2,1,0.0435,0.263,0.282
INF2,2,0.129,0.131,0.21
KIF3C,1,0.235,0.148,0.43
CBFA2T2,1,0.24,0.299,0.662
RIMS1,1,0.0863,0.168,0.284
INA,1,0.196,0.27,0.327
SNX27,1,0.0919,0.209,0.194
PRR13,1,0.185,0.744,0.226
MED28,1,0.186,0.717,0.401
PSMC3,1,0.51,1.36,0.447
CYSTM1,1,0.143,0.329,0.52
PCYT1A,1,0.052,0.268,0.413
TIMM10B,1,0.148,0.21,0.281
POLL,1,0.154,0.0927,0.269
GID4,1,0.117,0.37,0.426
CARS2,1,0.178,0.152,0.234
CDKL3,1,0.104,0.0613,0.256
NFIC,1,0.109,0.0484,0.309
ARL15,1,0.11,0.153,0.205
PKP2,1,0.0615,0.114,0.321
SLC39A1,1,0.182,0.351,0.408
SERPINB5,1,0.158,0.216,0.234
GAPDH,1,0.0772,0.11,0.226
SORCS1,1,0.0736,0.17,0.273
TXNDC5,1,0.0683,0.0418,0.206
PPY,1,0.0549,0.0628,0.26
MDFIC,1,0.272,0.251,0.268
RDX,1,0.112,0.0681,0.264
KIF4A,1,0.0508,0.133,0.273
HOPX,1,0.0949,0.132,0.266
PGLYRP4,1,0.184,0.07,0.428
UMOD,1,0.133,0.262,0.32
PRELID3B,1,0.142,0.17,0.299
PFDN6,1,0.171,0.167,0.358
MBIP,1,0.1,0.074,0.227
EIPR1,1,0.0649,0.136,0.309
NPEPL1,1,0.265,0.191,0.402
CNGA2,1,0.322,0.442,0.735
POLR2J,1,0.169,0.326,0.325
SLC38A2,1,0.0949,0.105,0.242
C9,1,0.0764,0.61,0.378
TMEM175,1,0.128,0.223,0.36
TSGA10,1,0.0954,0.124,0.184
GSK3A,1,0.104,0.0775,0.379
LGALS3,1,0.141,0.186,0.381
LGALS3,2,0.104,0.331,0.331
KIAA0319L,1,0.0454,0.172,0.248
ESPL1,1,0.0863,0.213,0.261

Targets listed so far whose gene name begins with I or i (3):
gene symbol,pool no.,"BNIP3L mRNA, set 1","NDRG1 mRNA, set 1","BNIP3 mRNA, set 1"
INF2,1,0.0435,0.263,0.282
INF2,2,0.129,0.131,0.21
INA,1,0.196,0.27,0.327
